Results: patent publication US10022342B2, “Methods and compositions for treating multiple myeloma” (Ohio State Innovation Foundation, priority 2015, dated 2018)

System: MM cells
Assay: IC50 concentrations of HDAC inhibitors in MM cells
Type: cell-based
Settings: Homo sapiens

`O=C(CCCCCCC(=O)Nc1ccccc1)NO` [SAHA, suberoylanilide hydroxamic acid, reference compound] gave an IC50 of 1 µM.
